According to article PMC5410595, “In Vitro and In Silico Antidiabetic and Antimicrobial Evaluation of Constituents from Kickxia ramosissima (Nanorrhinum ramosissimum)” (Frontiers in Pharmacology, 2017):

System: Plasmodium falciparum K1
Experiment: Antimicrobial screening panel: Plasmodium falciparum
Format: cell-based
Conditions: K1, read-out: IC50 Plasmodium falciparum K1
Description: Fractions and isolated compounds were evaluated for antimicrobial activity in an integrated screening panel, also including the human MRC-5 cell line to assess selectivity, as reported before ([Cos et al., 2006]; [Mesia et al., 2008]; [Baldé et al., 2010]; [Amin et al., 2016]).

For CCN(CC)CCCC(C)Nc1ccnc2cc(Cl)ccc12 (stereo not shown) [chloroquine, reference compound], which IC50 is on record?
Its IC50 is 80 nM.
